# Results as given in the supplement of paper PMC10849652.
# Protein sequences, listed by entry. Tags and fused reporters are not part of them. Lines headed by an entry give the natural chain unless they say otherwise; changes in a name come on top.
# UniProt Q9UK97: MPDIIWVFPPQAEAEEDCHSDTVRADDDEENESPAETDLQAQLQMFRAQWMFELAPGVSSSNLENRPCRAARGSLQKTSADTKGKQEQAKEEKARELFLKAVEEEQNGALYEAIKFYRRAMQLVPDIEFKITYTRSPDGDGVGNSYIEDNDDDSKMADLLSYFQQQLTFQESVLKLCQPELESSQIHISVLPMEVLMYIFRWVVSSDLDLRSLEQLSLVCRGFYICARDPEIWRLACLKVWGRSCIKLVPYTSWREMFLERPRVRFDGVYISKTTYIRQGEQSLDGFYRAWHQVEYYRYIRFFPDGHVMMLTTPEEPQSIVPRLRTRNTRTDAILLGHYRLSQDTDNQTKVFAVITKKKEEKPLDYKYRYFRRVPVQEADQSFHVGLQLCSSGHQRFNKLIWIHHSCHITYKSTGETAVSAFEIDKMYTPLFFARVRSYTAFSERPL
# UniProt Q9Y680: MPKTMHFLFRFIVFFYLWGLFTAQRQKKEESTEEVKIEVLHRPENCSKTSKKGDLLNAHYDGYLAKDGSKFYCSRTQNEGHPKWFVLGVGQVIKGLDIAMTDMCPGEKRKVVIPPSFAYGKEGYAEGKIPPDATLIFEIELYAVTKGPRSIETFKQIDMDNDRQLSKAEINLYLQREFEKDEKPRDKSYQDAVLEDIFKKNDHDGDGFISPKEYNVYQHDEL
# UniProt O14526: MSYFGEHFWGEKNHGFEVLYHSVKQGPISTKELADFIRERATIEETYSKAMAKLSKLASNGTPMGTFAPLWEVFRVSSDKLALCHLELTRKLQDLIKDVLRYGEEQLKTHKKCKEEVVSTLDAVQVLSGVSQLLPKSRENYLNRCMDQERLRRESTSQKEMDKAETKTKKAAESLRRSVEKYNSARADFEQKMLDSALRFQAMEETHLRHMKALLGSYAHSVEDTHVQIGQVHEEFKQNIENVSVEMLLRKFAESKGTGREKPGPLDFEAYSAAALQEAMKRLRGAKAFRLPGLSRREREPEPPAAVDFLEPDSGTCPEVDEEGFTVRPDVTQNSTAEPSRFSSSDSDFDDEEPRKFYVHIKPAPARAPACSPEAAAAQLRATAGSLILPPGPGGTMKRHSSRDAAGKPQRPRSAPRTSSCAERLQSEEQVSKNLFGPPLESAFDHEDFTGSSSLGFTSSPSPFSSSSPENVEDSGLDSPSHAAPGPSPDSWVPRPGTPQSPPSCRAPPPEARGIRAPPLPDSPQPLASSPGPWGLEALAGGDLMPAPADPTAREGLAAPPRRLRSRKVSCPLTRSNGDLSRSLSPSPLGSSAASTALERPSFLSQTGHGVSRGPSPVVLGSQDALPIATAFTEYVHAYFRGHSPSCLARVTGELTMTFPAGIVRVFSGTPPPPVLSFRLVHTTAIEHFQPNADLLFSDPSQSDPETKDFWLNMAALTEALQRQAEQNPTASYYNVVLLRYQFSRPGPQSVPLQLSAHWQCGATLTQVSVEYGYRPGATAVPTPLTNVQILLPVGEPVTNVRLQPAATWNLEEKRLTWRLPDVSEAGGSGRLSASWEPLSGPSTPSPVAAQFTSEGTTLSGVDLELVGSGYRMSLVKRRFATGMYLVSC
# UniProt Q14254: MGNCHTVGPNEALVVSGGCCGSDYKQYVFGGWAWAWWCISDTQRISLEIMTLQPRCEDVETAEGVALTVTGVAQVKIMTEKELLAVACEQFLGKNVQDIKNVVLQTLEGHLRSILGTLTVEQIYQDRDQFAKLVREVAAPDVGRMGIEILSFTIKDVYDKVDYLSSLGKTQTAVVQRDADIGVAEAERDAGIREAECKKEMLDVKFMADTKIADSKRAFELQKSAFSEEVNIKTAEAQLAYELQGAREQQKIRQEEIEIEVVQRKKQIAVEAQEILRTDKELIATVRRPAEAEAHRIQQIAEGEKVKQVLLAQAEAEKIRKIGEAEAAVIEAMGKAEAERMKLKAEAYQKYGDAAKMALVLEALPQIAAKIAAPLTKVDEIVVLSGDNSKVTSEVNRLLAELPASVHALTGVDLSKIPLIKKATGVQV
# UniProt Q9UK99: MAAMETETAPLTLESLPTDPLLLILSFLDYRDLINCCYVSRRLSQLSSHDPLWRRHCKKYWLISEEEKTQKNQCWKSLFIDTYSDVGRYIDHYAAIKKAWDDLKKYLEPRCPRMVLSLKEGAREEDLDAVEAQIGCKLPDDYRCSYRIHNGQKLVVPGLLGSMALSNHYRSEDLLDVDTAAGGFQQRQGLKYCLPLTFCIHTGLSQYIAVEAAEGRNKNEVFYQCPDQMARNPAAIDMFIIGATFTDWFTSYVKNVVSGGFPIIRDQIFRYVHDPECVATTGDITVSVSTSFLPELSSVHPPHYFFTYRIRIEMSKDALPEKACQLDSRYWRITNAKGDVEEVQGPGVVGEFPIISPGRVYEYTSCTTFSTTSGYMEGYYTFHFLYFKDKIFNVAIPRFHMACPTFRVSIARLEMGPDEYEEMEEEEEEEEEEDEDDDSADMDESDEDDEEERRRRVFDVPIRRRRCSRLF
# UniProt Q17RN3: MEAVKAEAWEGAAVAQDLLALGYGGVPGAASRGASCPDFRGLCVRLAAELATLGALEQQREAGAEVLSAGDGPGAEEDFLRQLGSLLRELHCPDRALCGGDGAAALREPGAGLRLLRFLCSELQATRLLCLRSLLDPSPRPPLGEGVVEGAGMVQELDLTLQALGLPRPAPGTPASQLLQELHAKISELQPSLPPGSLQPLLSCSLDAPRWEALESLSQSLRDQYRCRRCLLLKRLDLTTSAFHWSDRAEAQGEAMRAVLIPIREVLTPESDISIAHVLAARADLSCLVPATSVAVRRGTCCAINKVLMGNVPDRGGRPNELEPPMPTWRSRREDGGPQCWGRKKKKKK
# UniProt Q6PIJ6: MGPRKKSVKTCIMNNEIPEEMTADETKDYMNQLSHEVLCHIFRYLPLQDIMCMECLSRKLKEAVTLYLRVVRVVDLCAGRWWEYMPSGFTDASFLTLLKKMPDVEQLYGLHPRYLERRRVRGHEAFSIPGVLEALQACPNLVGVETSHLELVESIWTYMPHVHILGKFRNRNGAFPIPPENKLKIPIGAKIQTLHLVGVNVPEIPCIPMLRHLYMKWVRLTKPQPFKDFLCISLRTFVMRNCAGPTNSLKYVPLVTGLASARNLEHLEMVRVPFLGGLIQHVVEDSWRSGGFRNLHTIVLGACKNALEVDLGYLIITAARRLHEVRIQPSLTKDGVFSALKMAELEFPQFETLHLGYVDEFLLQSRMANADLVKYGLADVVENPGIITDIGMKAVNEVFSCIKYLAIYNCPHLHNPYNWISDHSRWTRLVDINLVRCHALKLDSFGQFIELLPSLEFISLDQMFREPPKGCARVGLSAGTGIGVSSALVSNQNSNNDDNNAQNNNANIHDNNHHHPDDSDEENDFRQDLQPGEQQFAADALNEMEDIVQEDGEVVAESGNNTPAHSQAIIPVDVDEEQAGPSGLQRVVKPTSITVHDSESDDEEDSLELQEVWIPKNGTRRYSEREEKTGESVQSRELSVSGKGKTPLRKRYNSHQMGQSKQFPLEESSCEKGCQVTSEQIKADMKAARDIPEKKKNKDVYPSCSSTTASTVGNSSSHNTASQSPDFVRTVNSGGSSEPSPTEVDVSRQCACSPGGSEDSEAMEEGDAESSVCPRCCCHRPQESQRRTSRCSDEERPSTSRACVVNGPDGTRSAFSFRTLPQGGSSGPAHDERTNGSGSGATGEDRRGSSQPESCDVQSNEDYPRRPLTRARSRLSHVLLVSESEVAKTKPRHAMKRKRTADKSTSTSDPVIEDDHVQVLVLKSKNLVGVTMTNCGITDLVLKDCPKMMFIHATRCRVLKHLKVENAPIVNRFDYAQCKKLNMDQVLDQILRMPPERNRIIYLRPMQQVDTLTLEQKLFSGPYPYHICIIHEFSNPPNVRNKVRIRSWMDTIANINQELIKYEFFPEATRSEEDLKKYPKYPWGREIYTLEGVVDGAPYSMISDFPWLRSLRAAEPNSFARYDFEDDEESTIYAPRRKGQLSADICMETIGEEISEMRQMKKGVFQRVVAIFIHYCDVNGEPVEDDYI
# UniProt Q8NFG4: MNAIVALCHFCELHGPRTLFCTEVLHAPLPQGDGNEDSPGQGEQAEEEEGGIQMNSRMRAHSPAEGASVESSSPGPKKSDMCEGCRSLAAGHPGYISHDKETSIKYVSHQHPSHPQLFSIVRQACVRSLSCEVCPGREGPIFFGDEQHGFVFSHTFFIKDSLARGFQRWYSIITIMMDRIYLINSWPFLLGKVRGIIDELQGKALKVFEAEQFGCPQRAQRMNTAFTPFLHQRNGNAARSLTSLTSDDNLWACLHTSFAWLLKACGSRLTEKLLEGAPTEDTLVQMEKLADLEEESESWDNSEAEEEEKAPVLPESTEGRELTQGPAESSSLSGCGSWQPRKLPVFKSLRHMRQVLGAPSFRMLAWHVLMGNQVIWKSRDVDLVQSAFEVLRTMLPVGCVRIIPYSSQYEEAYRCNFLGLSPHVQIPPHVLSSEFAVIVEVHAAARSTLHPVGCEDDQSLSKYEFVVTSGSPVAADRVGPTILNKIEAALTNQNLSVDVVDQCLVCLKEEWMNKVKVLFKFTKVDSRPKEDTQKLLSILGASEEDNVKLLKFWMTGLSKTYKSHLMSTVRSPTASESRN
# UniProt Q9UKT4: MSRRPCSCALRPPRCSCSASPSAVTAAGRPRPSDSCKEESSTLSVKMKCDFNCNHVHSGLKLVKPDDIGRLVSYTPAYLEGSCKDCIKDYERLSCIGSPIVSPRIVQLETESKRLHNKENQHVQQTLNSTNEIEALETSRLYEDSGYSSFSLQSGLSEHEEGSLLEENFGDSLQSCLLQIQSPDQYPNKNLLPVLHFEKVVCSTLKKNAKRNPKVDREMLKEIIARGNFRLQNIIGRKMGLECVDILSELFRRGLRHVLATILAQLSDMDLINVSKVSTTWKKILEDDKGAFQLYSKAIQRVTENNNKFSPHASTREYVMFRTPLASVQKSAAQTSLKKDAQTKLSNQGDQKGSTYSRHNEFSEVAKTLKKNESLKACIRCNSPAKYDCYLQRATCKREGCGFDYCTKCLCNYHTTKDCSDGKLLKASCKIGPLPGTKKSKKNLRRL
# UniProt Q8N0W3: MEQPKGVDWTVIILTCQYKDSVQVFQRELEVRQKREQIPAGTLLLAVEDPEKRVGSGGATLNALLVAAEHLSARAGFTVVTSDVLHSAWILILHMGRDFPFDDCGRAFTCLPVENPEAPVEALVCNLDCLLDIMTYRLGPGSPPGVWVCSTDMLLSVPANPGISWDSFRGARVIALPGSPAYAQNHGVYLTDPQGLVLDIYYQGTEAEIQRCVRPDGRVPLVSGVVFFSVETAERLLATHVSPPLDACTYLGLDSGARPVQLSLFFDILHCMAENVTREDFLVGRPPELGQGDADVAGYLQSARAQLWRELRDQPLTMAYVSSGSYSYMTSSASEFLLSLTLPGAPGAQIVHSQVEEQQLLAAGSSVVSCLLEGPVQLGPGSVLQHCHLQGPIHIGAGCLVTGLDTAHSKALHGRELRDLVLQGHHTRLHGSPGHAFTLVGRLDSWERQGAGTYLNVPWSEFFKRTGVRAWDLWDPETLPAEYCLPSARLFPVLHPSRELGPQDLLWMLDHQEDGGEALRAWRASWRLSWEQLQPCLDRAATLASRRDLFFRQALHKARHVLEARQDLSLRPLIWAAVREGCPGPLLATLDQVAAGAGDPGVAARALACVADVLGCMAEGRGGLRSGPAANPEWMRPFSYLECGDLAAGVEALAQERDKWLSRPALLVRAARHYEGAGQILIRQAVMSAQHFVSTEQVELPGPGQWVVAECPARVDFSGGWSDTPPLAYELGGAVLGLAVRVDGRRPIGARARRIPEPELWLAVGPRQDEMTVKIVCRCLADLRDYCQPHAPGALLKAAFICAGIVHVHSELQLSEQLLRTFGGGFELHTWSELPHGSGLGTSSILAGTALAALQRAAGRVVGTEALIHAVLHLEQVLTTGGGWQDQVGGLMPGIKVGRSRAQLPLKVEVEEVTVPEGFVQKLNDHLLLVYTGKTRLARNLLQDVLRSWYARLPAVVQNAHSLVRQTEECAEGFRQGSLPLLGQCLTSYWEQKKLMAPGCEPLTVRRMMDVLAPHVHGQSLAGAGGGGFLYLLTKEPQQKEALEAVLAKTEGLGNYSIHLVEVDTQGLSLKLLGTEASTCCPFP
# UniProt P26885: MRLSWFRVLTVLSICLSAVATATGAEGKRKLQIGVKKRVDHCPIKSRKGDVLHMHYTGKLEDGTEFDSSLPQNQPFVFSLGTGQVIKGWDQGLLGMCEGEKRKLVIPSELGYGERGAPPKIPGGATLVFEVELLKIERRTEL
# UniProt Q9NRD1: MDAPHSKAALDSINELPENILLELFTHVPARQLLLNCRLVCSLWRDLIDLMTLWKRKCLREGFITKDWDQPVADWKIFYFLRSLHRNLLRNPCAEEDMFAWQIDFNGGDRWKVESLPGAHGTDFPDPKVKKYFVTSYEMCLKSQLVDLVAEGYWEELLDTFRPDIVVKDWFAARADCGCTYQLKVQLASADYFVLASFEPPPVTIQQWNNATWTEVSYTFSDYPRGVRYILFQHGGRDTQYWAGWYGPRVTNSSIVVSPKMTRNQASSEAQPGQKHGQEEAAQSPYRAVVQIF
# This is one part of the list.
# Columns and labels:
# Experiment in all cases: log2 fold change, soluble protein after heating vs DMSO (PISA); higher = thermal stabilisation; K562 lysate, 10 uM; active = over 0.2 and 3.5 SD of the protein, either way, in both replicates (recomputed)
# [1] = compound: C1=CC=C(C=C1)[C@H](COC2=CC3=C(C=C2)NC(=O)N3)NC(=O)C4=CC=CN(C4=O)CC5=CC(=C(C=C5)F)F
# How it was run: (§1)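 Quantification was by TMTpro 16plex LC-MS/MS with equalised channel sums, applied to the supernatant after 21,000xg for 90 min. Samples were crude K562 extract at 1 mg/mL protein in PBS pH 7.4 with 1 mM MgCl2, treated with 10 μM compound for 30 min, heated for 3 min across 48°C-58°C, pooled and brought to 0.5% NP-40 at 4°C. Values are log-two fold changes in thermal stability relative to solvent controls, from duplicates.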
# [2] = compound: CC1=C(SC2=C1C(=N[C@H](C3=NN=C(N32)C)CC(=O)N)C4=CC=C(C=C4)Cl)C
# How it was run: as §1
# [3] = compound: CC1=C2C(=CC=C1)N=C(N(C2=O)C3=CC=CC=C3C)CN4C=NC5=C(N=CN=C54)N
# How it was run: as §1
# [4] = compound: Cc1sc2c(c1C)C(c1ccc(Cl)cc1)=N[C@@H](CC(=O)OC(C)(C)C)c1nnc(C)n1-2
# How it was run: as §1
# [5] = compound: c1ccc([C@@H]2C[C@H]2NC2CCNCC2)cc1
# How it was run: as §1
Target,log2 fold change [1],log2 fold change [2],log2 fold change [3],log2 fold change [4],log2 fold change [5]
FAU (UniProt E9PR30),inactive: 0.001,inactive: 0.06,inactive: -0.008,inactive: 0.018,inactive: 0.135
FKBP1A (UniProt P62942),inactive: 0.011,inactive: -0.134,inactive: -0.069,inactive: -0.01,inactive: -0.214
FMR1 (UniProt Q06787),inactive: -0.04,inactive: 0.05,inactive: -0.004,inactive: -0.017,inactive: -0.067
FAT3 isoform 1 (UniProt Q8TDW7),inactive: -0.085,inactive: 0.109,inactive: -0.024,inactive: -0.041,inactive: 0.087
FERMT2 isoform 3 (UniProt Q96AC1),inactive: 0.007,inactive: -0.058,inactive: 0.073,inactive: -0.025,inactive: -0.034
FNTA (UniProt P49354),inactive: -0.059,inactive: 0.144,inactive: 0.016,inactive: 0.035,inactive: 0.002
FARSA (UniProt Q9Y285),inactive: 0.028,inactive: 0.171,inactive: -0.003,inactive: -0.028,inactive: -0.009
FGF2 (UniProt P09038),inactive: -0.039,inactive: -0.132,inactive: 0.015,inactive: 0.017,inactive: -0.021
"FBRSL1, A0A3B3IRR3",inactive: 0.002,inactive: 0.005,inactive: -0.021,inactive: 0.02,inactive: -0.028
FBXO7 (UniProt Q9Y3I1),inactive: -0.023,inactive: -0.026,inactive: 0.049,inactive: 0.032,inactive: -0.066
FIS1 (UniProt Q9Y3D6),inactive: 0.061,inactive: -0.002,inactive: -0.03,inactive: -0.017,inactive: 0.013
FCHSD1 (UniProt Q86WN1),inactive: 0.011,inactive: 0.065,inactive: 0.007,inactive: 0.004,inactive: -0.083
FBXO9 (UniProt Q9UK97),inactive: -0.07,inactive: -0.112,inactive: -0.002,inactive: 0.089,inactive: 0.095
FN3KRP (UniProt Q9HA64),inactive: 0.047,inactive: 0.021,inactive: -0.08,inactive: -0.002,inactive: 0.007
FBXO44 isoform 2 (UniProt Q9H4M3),inactive: 0.336,inactive: 0.064,inactive: -0.079,inactive: -0.026,inactive: -0.074
FDPS (UniProt P14324),inactive: -0.02,inactive: 0.055,inactive: 0.029,inactive: 0.015,inactive: 0.03
FBXW2 (UniProt Q9UKT8),inactive: -0.038,inactive: 0.068,inactive: -0.05,inactive: 0.05,inactive: 0.079
FNIP1 isoform 3 (UniProt Q8TF40),inactive: 0.037,inactive: 0.042,inactive: 0.017,inactive: 0.103,inactive: 0.006
FBXO46 (UniProt Q6PJ61),inactive: -0.004,inactive: -0.01,inactive: -0.041,inactive: -0.018,inactive: -0.037
FASTKD2 (UniProt Q9NYY8),inactive: -0.013,inactive: 0.044,inactive: 0.018,inactive: 0.017,inactive: 0.002
FGFR1OP2 (UniProt Q9NVK5),inactive: 0.063,inactive: -0.001,inactive: 0.068,inactive: -0.038,inactive: -0.024
FASTKD5 (UniProt Q7L8L6),inactive: -0.168,inactive: -0.056,inactive: -0.024,inactive: -0.002,inactive: 0.133
FMNL1 isoform 3 (UniProt O95466),inactive: 0.104,inactive: -0.01,inactive: 0.057,inactive: 0.027,inactive: 0.082
FNBP1 (UniProt Q96RU3),inactive: 0.024,inactive: -0.025,inactive: 0.076,inactive: 0.019,inactive: 0.065
FBXO2 (UniProt Q9UK22),inactive: -0.274,inactive: 0.068,inactive: -0.18,inactive: -0.06,inactive: -0.395
FKBP7 (UniProt Q9Y680),inactive: 0.015,inactive: 0.026,inactive: -0.026,inactive: -0.012,inactive: -0.002
FOPNL (UniProt Q96NB1),inactive: -0.005,inactive: -0.078,inactive: -0.072,inactive: -0.019,inactive: 0.068

Target,log2 fold change [1],log2 fold change [2],log2 fold change [3],log2 fold change [4],log2 fold change [5]
FCHO1 (UniProt O14526),inactive: -0.026,inactive: 0.066,inactive: -0.025,inactive: 0.009,inactive: 0.027
FKBP9 (UniProt O95302),inactive: -0.041,inactive: 0.001,inactive: 0.038,inactive: -0.003,inactive: -0.009
FASN (UniProt P49327),inactive: -0.009,inactive: 0.027,inactive: -0.003,inactive: 0.024,inactive: 0.031
FBXO30 (UniProt Q8TB52),inactive: -0.034,inactive: 0.011,inactive: -0.041,inactive: 0.036,inactive: 0.12
FLOT2 (UniProt Q14254),inactive: -0.048,inactive: -0.002,inactive: 0.03,inactive: 0.008,inactive: 0.003
FBXO3 (UniProt Q9UK99),inactive: -0.002,inactive: 0.055,inactive: 0.004,inactive: -0.026,inactive: -0.013
FDFT1 (UniProt P37268),inactive: -0.045,active: 0.268,inactive: 0,inactive: 0.107,inactive: -0.047
FLNC (UniProt Q14315),inactive: -0.008,inactive: -0.004,inactive: -0.008,inactive: -0.004,inactive: -0.053
FAM98C (UniProt Q17RN3),inactive: 0.049,inactive: -0.129,inactive: -0.066,inactive: -0.25,inactive: 0.001
FBXO38 (UniProt Q6PIJ6),inactive: -0.007,inactive: 0.094,inactive: 0.007,inactive: 0.068,inactive: 0.013
FHL2 (UniProt Q14192),inactive: 0.071,inactive: -0.006,inactive: 0.026,inactive: 0.009,inactive: -0.086
FBXO45 (UniProt P0C2W1),inactive: -0.079,inactive: -0.177,inactive: -0.004,–,inactive: 0.053
FLCN (UniProt Q8NFG4),inactive: -0.007,inactive: 0.081,inactive: -0.004,inactive: 0.018,inactive: -0.033
FMR1 isoform 9 (UniProt Q06787),inactive: -0.303,inactive: -0.096,–,inactive: 0.282,–
FKBP5 (UniProt Q13451),inactive: -0.006,inactive: 0.003,inactive: 0.018,inactive: -0.019,inactive: 0.01
FKBP4 (UniProt Q02790),inactive: -0.001,inactive: 0.002,inactive: -0.003,inactive: 0.006,inactive: 0.012
FN1 (UniProt P02751),inactive: 0.045,inactive: -0.023,inactive: -0.078,inactive: 0.062,inactive: -0.02
FARS2 (UniProt O95363),inactive: 0.154,inactive: -0.067,inactive: 0.006,–,inactive: 0.155
FBXO5 (UniProt Q9UKT4),inactive: 0.012,inactive: -0.001,inactive: 0.014,inactive: -0.003,inactive: 0.073
FCSK (UniProt Q8N0W3),inactive: 0.008,inactive: -0.002,inactive: 0.052,inactive: -0.066,inactive: -0.018
FLNA (UniProt P21333),inactive: -0.004,inactive: 0.006,inactive: -0.004,inactive: -0.024,inactive: -0.053
FKBP2 (UniProt P26885),inactive: 0.028,inactive: -0.016,inactive: -0.021,inactive: 0.011,inactive: -0.041
FKBP3 (UniProt Q00688),inactive: -0.04,inactive: 0.031,inactive: -0.029,inactive: -0.003,inactive: -0.001
FGFR1OP (UniProt O95684),inactive: 0.013,inactive: 0.026,inactive: 0.004,inactive: -0.03,inactive: 0.002
FBXO6 (UniProt Q9NRD1),inactive: 0.042,inactive: -0.022,inactive: 0.037,inactive: -0.023,inactive: 0.019
FAT2 (UniProt Q9NYQ8),inactive: -0.009,inactive: 0.092,inactive: 0.104,–,inactive: -0.161
FIP1L1 (UniProt Q6UN15),inactive: -0.064,inactive: 0.015,inactive: 0.003,inactive: 0.014,inactive: -0.002

# Individual results from the results shown:
# Value for FASN (UniProt P49327) under log2 fold change [4]: inactive: 0.024
# Value for FBRSL1, A0A3B3IRR3 under log2 fold change [3]: inactive: -0.021
